According to the supplement of paper PMC12067093, “Discovery and optimisation of a covalent ligand for TRIM25 and its application to targeted protein ubiquitination” (Chemical Science, 2025):
Some of the results follow.

Amino acid sequences for entries named in this document (tags omitted). A change or cut given only in a name is not applied to a line headed by its entry.
UniProt P13489: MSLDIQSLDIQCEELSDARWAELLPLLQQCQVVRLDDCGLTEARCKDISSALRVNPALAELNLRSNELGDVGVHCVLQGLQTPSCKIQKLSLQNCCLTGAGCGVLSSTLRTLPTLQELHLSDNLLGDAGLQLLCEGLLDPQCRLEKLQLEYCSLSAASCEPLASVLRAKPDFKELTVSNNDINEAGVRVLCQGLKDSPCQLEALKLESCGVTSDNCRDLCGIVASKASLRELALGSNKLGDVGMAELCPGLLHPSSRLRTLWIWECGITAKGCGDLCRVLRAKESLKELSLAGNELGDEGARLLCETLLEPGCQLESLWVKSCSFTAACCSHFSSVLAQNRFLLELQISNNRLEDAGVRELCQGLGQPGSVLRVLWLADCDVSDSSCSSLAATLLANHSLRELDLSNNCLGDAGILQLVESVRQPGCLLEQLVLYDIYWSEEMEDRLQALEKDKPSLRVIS
UniProt Q9UBF6, whole entry, looked up: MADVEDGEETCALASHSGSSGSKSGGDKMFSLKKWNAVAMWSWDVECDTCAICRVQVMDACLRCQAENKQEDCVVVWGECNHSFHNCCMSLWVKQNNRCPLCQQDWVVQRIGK
UniProt O43567: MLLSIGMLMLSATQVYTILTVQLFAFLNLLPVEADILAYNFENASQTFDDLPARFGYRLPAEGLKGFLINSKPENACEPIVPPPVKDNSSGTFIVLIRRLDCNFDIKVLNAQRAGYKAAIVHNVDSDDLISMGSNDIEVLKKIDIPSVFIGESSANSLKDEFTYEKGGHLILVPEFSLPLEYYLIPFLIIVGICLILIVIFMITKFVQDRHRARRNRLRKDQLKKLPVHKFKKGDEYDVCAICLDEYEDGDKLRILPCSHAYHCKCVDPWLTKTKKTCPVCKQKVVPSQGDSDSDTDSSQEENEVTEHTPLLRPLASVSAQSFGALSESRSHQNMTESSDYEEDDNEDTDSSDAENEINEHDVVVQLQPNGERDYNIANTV
UniProt P27694, whole entry, looked up: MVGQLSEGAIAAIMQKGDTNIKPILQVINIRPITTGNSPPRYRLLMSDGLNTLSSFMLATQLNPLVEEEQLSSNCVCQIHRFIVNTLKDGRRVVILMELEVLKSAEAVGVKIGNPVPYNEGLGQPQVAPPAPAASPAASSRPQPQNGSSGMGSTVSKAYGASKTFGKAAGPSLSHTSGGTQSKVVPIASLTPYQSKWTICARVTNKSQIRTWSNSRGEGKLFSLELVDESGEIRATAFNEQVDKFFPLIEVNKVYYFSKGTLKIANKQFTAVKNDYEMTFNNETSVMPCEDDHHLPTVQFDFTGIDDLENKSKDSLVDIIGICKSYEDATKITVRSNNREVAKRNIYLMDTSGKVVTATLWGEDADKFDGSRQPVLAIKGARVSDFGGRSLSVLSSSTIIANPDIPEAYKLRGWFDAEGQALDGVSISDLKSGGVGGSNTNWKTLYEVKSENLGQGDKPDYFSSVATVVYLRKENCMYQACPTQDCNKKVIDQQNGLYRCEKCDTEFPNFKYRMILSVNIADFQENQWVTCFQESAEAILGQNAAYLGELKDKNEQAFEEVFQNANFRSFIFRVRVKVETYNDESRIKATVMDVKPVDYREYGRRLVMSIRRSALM
UniProt Q13464: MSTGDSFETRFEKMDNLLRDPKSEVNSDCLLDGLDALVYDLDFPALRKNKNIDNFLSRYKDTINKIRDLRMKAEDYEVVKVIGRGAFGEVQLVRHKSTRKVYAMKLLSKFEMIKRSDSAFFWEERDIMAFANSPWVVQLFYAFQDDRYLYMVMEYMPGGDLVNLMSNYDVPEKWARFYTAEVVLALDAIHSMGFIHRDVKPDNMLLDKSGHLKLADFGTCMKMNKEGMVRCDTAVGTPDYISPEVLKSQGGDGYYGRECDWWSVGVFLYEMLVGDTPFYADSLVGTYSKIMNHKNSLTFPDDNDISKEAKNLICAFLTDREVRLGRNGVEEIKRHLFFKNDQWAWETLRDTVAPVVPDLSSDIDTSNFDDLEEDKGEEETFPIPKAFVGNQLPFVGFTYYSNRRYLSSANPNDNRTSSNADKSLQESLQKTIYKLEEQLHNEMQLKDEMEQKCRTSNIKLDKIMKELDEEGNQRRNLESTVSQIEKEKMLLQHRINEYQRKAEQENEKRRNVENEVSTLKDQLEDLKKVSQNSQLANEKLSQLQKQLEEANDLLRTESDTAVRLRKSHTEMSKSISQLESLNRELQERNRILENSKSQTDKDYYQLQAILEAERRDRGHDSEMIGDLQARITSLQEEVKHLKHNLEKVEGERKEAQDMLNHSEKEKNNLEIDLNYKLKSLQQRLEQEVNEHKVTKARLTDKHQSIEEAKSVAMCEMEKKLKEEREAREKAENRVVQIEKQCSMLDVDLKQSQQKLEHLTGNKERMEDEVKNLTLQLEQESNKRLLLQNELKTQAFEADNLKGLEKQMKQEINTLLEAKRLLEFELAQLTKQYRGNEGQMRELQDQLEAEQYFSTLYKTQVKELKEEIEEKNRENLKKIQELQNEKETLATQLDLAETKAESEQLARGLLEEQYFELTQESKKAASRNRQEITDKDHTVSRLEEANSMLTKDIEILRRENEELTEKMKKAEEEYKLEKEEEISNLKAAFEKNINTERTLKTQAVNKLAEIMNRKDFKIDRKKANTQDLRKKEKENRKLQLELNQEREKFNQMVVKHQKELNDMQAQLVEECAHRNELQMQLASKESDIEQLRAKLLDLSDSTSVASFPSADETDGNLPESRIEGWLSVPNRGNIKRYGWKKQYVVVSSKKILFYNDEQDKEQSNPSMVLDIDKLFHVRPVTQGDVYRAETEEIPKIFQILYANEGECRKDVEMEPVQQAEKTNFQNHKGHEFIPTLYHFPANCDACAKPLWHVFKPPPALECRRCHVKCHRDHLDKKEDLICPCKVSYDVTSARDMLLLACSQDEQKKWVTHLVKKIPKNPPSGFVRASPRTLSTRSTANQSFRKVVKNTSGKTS
UniProt O75150, whole entry, looked up: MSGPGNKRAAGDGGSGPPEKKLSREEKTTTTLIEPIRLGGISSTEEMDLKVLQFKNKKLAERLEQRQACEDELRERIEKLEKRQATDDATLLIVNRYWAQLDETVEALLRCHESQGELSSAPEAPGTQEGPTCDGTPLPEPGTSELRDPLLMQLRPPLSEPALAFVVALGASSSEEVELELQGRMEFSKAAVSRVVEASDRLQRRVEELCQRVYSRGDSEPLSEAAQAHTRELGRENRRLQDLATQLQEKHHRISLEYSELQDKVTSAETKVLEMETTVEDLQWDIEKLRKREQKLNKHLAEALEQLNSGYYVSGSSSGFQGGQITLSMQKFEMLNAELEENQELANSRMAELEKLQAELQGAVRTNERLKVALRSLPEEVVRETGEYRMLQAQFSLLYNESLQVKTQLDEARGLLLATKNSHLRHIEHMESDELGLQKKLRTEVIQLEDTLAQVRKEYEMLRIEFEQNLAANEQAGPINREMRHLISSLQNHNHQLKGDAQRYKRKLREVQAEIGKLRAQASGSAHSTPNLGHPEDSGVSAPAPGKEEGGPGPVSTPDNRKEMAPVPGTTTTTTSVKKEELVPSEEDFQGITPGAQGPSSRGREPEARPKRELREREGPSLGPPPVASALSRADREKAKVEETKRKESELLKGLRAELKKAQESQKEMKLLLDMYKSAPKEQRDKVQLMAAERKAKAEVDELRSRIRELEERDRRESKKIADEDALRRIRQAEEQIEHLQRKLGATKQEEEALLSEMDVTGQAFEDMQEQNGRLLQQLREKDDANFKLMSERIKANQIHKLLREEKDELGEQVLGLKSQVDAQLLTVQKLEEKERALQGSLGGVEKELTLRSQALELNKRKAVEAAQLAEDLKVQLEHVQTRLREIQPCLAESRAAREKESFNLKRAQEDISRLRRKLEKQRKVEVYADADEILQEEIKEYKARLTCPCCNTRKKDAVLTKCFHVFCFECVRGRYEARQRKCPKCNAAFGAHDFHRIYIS
UniProt Q8WU17: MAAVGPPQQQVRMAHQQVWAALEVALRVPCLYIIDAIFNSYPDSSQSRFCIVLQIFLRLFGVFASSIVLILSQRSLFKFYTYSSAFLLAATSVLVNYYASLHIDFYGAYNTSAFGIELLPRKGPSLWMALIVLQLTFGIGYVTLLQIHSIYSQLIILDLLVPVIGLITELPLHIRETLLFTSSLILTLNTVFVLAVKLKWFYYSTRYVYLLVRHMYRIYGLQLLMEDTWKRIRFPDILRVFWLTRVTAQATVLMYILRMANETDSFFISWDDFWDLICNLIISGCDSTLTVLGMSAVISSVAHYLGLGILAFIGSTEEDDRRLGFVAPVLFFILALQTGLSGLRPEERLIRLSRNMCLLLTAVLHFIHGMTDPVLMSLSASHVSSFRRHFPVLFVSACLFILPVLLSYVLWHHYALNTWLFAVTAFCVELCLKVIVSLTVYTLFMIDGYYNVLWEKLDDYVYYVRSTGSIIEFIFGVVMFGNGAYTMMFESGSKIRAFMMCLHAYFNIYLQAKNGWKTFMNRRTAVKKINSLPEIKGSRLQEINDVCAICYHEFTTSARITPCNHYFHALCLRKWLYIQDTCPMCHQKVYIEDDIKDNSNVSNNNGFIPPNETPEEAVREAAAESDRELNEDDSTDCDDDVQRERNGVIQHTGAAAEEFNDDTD
UniProt Q9H4A4: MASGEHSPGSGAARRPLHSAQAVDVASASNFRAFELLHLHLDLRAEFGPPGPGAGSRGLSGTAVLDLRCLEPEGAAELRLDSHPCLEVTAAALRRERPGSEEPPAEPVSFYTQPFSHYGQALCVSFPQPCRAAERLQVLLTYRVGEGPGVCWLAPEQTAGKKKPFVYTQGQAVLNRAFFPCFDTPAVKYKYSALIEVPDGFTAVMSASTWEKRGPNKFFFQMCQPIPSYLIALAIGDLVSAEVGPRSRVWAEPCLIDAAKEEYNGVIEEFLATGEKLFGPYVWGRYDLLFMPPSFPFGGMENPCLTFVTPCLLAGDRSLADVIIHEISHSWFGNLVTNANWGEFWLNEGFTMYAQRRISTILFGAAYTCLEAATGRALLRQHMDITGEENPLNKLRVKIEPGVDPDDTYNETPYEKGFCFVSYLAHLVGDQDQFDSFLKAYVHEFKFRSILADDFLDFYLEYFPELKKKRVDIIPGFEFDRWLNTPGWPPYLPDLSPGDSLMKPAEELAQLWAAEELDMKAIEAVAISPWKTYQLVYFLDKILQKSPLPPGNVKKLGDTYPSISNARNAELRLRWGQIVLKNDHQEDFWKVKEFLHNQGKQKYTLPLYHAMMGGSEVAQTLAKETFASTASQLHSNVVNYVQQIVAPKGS
UniProt P78345: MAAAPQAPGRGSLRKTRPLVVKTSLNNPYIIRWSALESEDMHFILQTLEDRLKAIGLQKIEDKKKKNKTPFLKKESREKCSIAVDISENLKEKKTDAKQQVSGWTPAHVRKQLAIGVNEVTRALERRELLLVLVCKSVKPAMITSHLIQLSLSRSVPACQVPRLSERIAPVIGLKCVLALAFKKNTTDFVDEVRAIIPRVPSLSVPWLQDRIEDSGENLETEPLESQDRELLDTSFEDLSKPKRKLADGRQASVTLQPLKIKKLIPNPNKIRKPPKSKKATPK
UniProt Q5VTR2, whole entry, looked up: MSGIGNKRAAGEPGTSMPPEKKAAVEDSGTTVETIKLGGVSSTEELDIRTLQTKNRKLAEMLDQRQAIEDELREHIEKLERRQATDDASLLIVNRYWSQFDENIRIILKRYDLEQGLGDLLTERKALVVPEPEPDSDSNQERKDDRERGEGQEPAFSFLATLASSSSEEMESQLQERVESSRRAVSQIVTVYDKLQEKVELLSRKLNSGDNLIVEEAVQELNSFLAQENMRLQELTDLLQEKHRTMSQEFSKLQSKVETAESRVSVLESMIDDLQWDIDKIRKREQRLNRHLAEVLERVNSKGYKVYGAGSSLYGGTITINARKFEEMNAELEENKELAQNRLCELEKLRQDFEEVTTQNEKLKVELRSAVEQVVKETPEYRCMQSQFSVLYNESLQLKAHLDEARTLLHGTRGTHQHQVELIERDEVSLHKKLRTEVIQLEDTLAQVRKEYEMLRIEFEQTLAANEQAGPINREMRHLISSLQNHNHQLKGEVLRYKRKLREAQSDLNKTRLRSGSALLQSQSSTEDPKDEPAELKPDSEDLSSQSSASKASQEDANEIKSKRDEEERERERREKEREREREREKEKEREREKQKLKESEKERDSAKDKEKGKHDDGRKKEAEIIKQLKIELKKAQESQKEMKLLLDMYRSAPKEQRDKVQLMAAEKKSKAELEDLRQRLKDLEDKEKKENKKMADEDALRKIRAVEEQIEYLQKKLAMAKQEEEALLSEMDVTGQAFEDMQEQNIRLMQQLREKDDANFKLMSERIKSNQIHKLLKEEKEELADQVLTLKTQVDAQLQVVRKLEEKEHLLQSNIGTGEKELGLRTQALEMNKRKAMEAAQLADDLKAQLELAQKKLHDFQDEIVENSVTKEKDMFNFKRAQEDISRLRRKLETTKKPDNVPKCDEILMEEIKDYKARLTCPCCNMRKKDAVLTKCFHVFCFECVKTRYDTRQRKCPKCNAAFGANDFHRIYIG

Compound: CC1Cc2ccccc2N1C(=O)C1CCCN(C1)C(=O)CCl (mixture of isomers) [TRIM25 ligand 11 (diastereomer mixture)]
Test: probe-labelled cysteine peptide fold change vs DMSO (competition) (log2 fold change); higher = less target engagement (more negative = stronger competition)
Conditions: THP-1, incubation time: 4 h
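Also: competitive chemoproteomic profiling in live THP-1 cells with an iodoacetamide desthiobiotin (IA-DTB) probe, comparing probe-labelled peptide intensities in compound-treated cells against DMSO-treated controls.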

Row | Target | probe-labelled cysteine peptide fold change (10 µM) | probe-labelled cysteine peptide fold change (50 µM)
1 | RNH1_P13489_96+102_LSLQNCCLTGAGCGVLSSTLR (UniProt P13489) | -0.148 | 0.0275
2 | RNF213_Q63HN8_1156_CVDSLLK (UniProt Q63HN8) | 0.0357 | 0.0382
3 | RNF220_Q5VTB9_359_EGSCMAEDDAVDIEHENNNRFEEYEWCGQK (UniProt Q5VTB9) | 0.0341 | -0.409
4 | RNF7_Q9UBF6_61_VQVMDACLR (UniProt Q9UBF6) | -0.0706 | 0.0366
5 | RNH1_P13489_323+330_SCSFTAACCSHFSSVLAQNR (UniProt P13489) | 0.197 | -0.0557
6 | RNF13_O43567_266_CVDPWLTK (UniProt O43567) | -0.0194 | -0.171
7 | RNF138_Q8WVD3_54_ESGAHCPLCR (UniProt Q8WVD3) | 0.122 | -0.124
8 | RPP30_P78346_225_AAVSTNCR (UniProt P78346) | -0.145 | 0.0901
9 | RNH1_P13489_152+159_LQLEYCSLSAASCEPLASVLR (UniProt P13489) | -0.172 | -0.377
10 | RPA1_P27694_323_DSLVDIIGICK (UniProt P27694) | 0.101 | 0.102
11 | RPL27A_P46776_70_NQSFCPTVNLDK (UniProt P46776) | 0.0159 | -0.0652
12 | RNF149_Q8NC42_295_ICIDPWLLDHR (UniProt Q8NC42) | -0.0438 | -0.243
13 | RNF213_Q63HN8_2503_EVLCDHMVDGQPLAEDSGLHIIAACNPYR (UniProt Q63HN8) | -0.0493 | -0.178
14 | RPL18A_Q02543_22_CHTPPLYR (UniProt Q02543) | -0.149 | -0.0267
15 | RNH1_P13489_216_LESCGVTSDNCR (UniProt P13489) | 0.11 | 0.114
16 | RPL37_P61927_37_CGYPAK (UniProt P61927) | -0.0366 | 0.00425
17 | ROCK1_Q13464_741_QCSMLDVDLK (UniProt Q13464) | -0.0623 | -0.00887
18 | RNF213_Q63HN8_3854_WNHELAGCEMTLDAFAAMACTEMLTR (UniProt Q63HN8) | 0.064 | -0.0763
19 | RNH1_P13489_330_SCSFTAACCSHFSSVLAQNR (UniProt P13489) | 0.296 | -0.0287
20 | RNGTT_O60942_375_FNSQPVGDCDFNVR (UniProt O60942) | -0.163 | -0.169
21 | RPL27A_P46776_70_RNQSFCPTVNLDK (UniProt P46776) | -0.102 | -0.143
22 | RNF214_Q8ND24_23_AASEVAGVVANAPSPPESSSLCASK (UniProt Q8ND24) | 0.0135 | -0.362

Row | Target | probe-labelled cysteine peptide fold change (10 µM) | probe-labelled cysteine peptide fold change (50 µM)
23 | RNF2_Q99496_72_FCADCIITALR (UniProt Q99496) | -0.00483 | 0.0431
24 | RPL10_P27635_195_LIPDGCGVK (UniProt P27635) | -0.112 | -0.223
25 | ROCK1_Q13464_1070_ELNDMQAQLVEECAHR (UniProt Q13464) | 0.0196 | -0.175
26 | RPAP3_Q9H6T3_519_QDVCQSYSEK (UniProt Q9H6T3) | -0.0397 | -0.246
27 | RNF213_Q63HN8_3365_NCLTNTAK (UniProt Q63HN8) | 0.0214 | 0.0812
28 | RNF14_Q9UBS8_265_DGQVQCLNCPEPK (UniProt Q9UBS8) | -0.0889 | 0.21
29 | RPL11_P62913_21_LCLNICVGESGDR (UniProt P62913) | 0.00603 | 0.0546
30 | RNF26_Q9BY78_401_HLCLCQACTEILMR (UniProt Q9BY78) | -0.0629 | 0.117
31 | RNF214_Q8ND24_675_LVQPSELHPMACTHVLHK (UniProt Q8ND24) | -0.0229 | -0.105
32 | RNF40_O75150_890_EIQPCLAESR (UniProt O75150) | 0.0867 | 0.00837
33 | RPL10A_P62906_74_FSVCVLGDQQHCDEAK (UniProt P62906) | 0.00411 | -0.082
34 | RNH1_P13489_248_LGDVGMAELCPGLLHPSSR (UniProt P13489) | 0.0799 | -0.0899
35 | RNF40_O75150_69_QACEDELR (UniProt O75150) | 0.136 | 0.187
36 | RNH1_P13489_38_LDDCGLTEAR (UniProt P13489) | -0.129 | -0.291
37 | RPL24_P83731_6_MKVELCSFSGYK (UniProt P83731) | -0.291 | -0.436
38 | RPA1_P27694_200_WTICAR (UniProt P27694) | -0.00272 | 0.118
39 | RNF213_Q63HN8_1805_CLPAFLPDCLDLETLGHCLAHLAGMGGSPVER (UniProt Q63HN8) | -0.179 | 0.165
40 | RNF139_Q8WU17_585_WLYIQDTCPMCHQK (UniProt Q8WU17) | 0.171 | 0.136
41 | RNH1_P13489_159_LQLEYCSLSAASCEPLASVLR (UniProt P13489) | -0.124 | -0.112
42 | RPL4_P36578_96_SGQGAFGNMCR (UniProt P36578) | -0.112 | -0.162
43 | RPL4_P36578_208_RGPCIIYNEDNGIIK (UniProt P36578) | -0.216 | -0.23
44 | RPL34_P49207_83_AYGGSMCAK (UniProt P49207) | 0.0015 | -0.092

Row | Target | probe-labelled cysteine peptide fold change (10 µM) | probe-labelled cysteine peptide fold change (50 µM)
45 | RNH1_P13489_30_WAELLPLLQQCQVVR (UniProt P13489) | -0.0264 | -0.12
46 | RNF213_Q63HN8_876_FYELPALSAEIVCR (UniProt Q63HN8) | -0.0144 | 0.205
47 | RNH1_P13489_152_LQLEYCSLSAASCEPLASVLR (UniProt P13489) | 0.424 | -0.0161
48 | RPL35A_P18077_47_CAYVYK (UniProt P18077) | -0.0168 | 0.0598
49 | RNF139_Q8WU17_550_LQEINDVCAICYHEFTTSAR (UniProt Q8WU17) | -0.0203 | 0.0142
50 | RNPEP_Q9H4A4_151_VGEGPGVCWLAPEQTAGKK (UniProt Q9H4A4) | -0.0589 | -0.0795
51 | RPL7A_P62424_199_KTCTTVAFTQVNSEDK (UniProt P62424) | -0.305 | -0.153
52 | RPP38_P78345_159_SVPACQVPR (UniProt P78345) | -0.0974 | -0.0564
53 | RNPEP_Q9H4A4_85_CLEPEGAAELRLDSHPCLEVTAAALR (UniProt Q9H4A4) | -0.335 | -0.128
54 | RNF20_Q5VTR2_344_LCELEK (UniProt Q5VTR2) | -0.0534 | -0.0847
55 | RNPEP_Q9H4A4_69_CLEPEGAAELR (UniProt Q9H4A4) | 0.117 | 0.197
56 | RPN1_P04843_545_TEGSDLCDR (UniProt P04843) | 0.0612 | 0.0728
57 | RPL6_Q02878_44_GKPHCSR (UniProt Q02878) | 0.0504 | -0.253
58 | RNF13_O43567_281_KTCPVCK (UniProt O43567) | -0.148 | -0.0295
59 | RNF20_Q5VTR2_905_CDEILMEEIK (UniProt Q5VTR2) | -0.107 | -0.12
60 | RPA1_P27694_486_ENCMYQACPTQDCNKK (UniProt P27694) | -0.16 | -0.263
61 | ROCK1_Q13464_1300_DMLLLACSQDEQKK (UniProt Q13464) | -0.0937 | -0.271
62 | RPL3_P39023_114_TVFAEHISDECKR (UniProt P39023) | 0.0509 | -0.257
63 | RNF214_Q8ND24_655_SSHAPATCK (UniProt Q8ND24) | 0.00177 | 0.0701
64 | RNF213_Q63HN8_3554_DQNESCTR (UniProt Q63HN8) | -0.0564 | 0.0698
65 | RPL7A_P62424_199_TCTTVAFTQVNSEDK (UniProt P62424) | 0.0386 | 0.0179
66 | RPP38_P78345_176_CVLALAFK (UniProt P78345) | 0.00849 | 0.0956
